What follows is the remainder of the data, with few or none of the hits. Records with an inconclusive call do not appear. Calls of active or inactive are those of the source. Calls come from the whole dose curve; as a rule, active = well fitted inhibition curve with a large enough effect; inconclusive = small, poorly fitted or top-dose-only effect; inactive = flat fitted curve, though single readings scatter.
Assay: Firefly Luciferase Counterscreen for Inhibitors of ATXN expression
Settings: luminescence; at 57.5 µM (top of the series)
Excerpt: University of Utah School of Medicine, Salt Lake City, Utah
Spinocerebellar ataxia type 2 (SCA2) is a multisystem neurodegenerative disease caused by a dominantly acting mutation leading to expansion of a polyQ domain in the ataxin-2 protein (ATXN2). SCA2 patients develop progressive ataxia and later lose function in other neuronal systems. Prominent parkinsonian signs develop in some patients. Like many neurodegenerative disorders, no symptomatic or disease-modifying treatments are known.
The primary objective of the proposed research is to identify compounds inhibiting ATXN2 expression and to test them for efficacy in SCA2 mouse models. We have developed a cell-based assay paired with an in vivo mouse model using identical luciferase expression constructs. This approach takes advantage of an ATXN2-luciferase transgene, with the luciferase gene flanked by the upstream and downstream portions of the ATXN2 gene. Here we describe a 5-7 dose quantitative high thoroughput screen (qHTS) for compounds lowering ATXN2 expression. […]
5; Detection; Luminescence; Viewlux plate reader (PerkinElmer). […]
5. End-point luminescence is then measured on the Viewlux (PerkinElmer) imager equipped with a clear emission filter using a 2 sec exposure. […]
% is set by controls: 0 for no effect and ±100 for the full control effect.

Structure (SMILES) | activity change, negative = inhibition
COc1ccccc1C(=O)NNC(=S)NC(=O)c1ccco1 | inactive: -17.4%

Source: PubChem BioAssay AID1745846 (National Center for Advancing Translational Sciences (NCATS), 2022)
